This is an account of results in publication PMC11297042.

Amino acid sequences for entries named in this document (tags omitted).
UniProt O60479: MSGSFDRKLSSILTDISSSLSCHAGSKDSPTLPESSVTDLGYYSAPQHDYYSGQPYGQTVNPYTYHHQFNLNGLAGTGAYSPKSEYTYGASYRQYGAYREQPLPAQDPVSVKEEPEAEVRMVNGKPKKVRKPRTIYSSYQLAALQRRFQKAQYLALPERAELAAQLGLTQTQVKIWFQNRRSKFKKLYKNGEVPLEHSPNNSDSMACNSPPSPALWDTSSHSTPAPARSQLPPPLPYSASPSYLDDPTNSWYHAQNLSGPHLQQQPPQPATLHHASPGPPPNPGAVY
UniProt O15021: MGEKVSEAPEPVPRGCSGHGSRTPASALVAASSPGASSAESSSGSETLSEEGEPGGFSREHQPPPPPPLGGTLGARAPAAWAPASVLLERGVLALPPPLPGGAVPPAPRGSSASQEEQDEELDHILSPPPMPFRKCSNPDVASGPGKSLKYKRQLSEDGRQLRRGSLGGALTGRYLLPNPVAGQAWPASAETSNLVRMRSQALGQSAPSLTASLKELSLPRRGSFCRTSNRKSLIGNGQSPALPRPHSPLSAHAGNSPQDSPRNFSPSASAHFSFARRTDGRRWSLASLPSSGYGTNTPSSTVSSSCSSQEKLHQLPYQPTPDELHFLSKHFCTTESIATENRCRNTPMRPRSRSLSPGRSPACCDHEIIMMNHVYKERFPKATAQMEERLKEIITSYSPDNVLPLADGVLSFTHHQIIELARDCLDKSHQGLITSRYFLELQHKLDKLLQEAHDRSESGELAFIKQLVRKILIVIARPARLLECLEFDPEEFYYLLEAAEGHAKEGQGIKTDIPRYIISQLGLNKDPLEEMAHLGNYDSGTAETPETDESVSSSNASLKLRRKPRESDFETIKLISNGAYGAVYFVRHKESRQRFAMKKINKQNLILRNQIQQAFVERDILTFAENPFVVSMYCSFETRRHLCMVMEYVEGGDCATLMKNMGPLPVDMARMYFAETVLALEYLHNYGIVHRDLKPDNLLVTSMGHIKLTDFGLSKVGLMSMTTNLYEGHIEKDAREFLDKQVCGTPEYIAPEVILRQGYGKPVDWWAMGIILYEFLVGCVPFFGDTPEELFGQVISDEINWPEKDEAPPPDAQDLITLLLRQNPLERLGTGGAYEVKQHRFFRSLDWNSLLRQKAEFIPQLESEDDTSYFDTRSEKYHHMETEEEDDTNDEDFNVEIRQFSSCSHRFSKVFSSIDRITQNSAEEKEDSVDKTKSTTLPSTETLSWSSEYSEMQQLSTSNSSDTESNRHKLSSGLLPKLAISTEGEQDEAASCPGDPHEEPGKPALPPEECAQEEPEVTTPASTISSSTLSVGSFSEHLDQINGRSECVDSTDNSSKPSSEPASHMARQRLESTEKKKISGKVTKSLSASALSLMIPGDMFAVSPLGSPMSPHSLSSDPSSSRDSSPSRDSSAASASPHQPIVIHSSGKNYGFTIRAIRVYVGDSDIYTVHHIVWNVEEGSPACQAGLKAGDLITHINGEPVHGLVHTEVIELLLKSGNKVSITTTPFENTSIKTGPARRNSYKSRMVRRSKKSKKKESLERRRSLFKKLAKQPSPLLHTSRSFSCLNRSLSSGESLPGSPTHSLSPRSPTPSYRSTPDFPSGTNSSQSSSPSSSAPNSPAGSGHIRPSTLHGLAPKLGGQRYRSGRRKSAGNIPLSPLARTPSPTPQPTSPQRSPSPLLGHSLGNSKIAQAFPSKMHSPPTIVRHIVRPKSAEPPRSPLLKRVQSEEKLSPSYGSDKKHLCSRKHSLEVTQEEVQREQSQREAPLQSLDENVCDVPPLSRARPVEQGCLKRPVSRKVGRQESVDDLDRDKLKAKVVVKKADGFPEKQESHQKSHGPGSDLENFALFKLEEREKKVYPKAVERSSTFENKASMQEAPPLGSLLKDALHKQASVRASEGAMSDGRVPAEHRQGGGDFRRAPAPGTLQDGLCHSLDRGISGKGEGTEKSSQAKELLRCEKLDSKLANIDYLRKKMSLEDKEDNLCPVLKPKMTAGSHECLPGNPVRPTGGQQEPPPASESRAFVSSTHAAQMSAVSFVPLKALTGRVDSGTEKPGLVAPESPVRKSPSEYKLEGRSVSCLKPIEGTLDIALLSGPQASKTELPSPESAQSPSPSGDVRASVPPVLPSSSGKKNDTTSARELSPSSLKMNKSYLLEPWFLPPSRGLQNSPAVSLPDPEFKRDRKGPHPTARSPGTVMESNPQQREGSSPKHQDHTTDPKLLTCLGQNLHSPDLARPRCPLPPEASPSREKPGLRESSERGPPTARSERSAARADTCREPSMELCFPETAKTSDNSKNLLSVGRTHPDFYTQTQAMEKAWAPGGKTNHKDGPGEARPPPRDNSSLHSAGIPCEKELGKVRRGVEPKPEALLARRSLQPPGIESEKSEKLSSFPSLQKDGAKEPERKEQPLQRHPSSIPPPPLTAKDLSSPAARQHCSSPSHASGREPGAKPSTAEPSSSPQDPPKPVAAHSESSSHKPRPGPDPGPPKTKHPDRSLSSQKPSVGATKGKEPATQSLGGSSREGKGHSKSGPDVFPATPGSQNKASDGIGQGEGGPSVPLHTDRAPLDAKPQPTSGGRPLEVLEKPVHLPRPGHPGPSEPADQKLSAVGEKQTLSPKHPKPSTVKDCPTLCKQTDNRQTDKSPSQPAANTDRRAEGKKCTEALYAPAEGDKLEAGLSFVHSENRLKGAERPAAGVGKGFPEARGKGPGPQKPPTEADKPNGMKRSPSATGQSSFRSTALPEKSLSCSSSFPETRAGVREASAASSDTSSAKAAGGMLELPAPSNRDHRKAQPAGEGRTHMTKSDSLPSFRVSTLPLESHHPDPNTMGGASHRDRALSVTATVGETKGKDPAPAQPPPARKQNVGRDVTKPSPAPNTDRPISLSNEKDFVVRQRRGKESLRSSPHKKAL

This test has as its target Distal-Less Homeobox 3 (DLX3) (UniProt O60479). The experiment in a line: co-IP; HEK293T cells transiently transfected (HA-MAST4 PDZ or HA-MAST4-Full with DLX3; HA-MAST4 PDZ cotransfected with Dlx3 deletion mutants), immunoprecipitation and western blotting; details in the Supplementary Information. (In general: A western blot detects proteins with antibodies after separation by electrophoresis.)

Results are given in words; binding and its absence hold for the method and conditions named. In cells and extracts the contact can be indirect. Some binding calls cover weakened binding; strength is not graded here.

With “HA-MAST4-Full (full-length MAST4) (from UniProt O15021 1-2623) (enzyme)”, the binding result is “binds”.
